# In PubChem BioAssay (NCATS):
# Inconclusive results, whose numbers are uncertain, are shown with a selection of clear calls. Where the call is inconclusive, the potency comes from a doubtful curve fit. Active and inactive are the calls of the source. Calls follow the shape of the dose curve; as a rule, active = well fitted curve in the direction sought with a large enough effect; inconclusive = small, poorly fitted or top-dose-only effect, or another doubt; inactive = no such curve, though single readings can be large; an effect the other way counts as inactive or inconclusive.
# Assays:
# [1] = qHTS of pediatric cancer cell lines to identify multiple opportunities for drug repurposing: Confirmatory screen for BT-12 cells (AID 1347112); also: nearly all actives have a fitted effect of over 55% in size
# Outline: (§1)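 Viability after 48 h compound treatment at 37C, 500-1,000 cells/well, read as ATP luminescence with CellTiter-Glo. Primary screens used 11-point (MIPE, 0.78 nM-46 µM) or 8-point (NPC, 0.59 nM-46 µM) final concentrations; follow-up screens used 11-point dilutions.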
# [2] = qHTS of pediatric cancer cell lines to identify multiple opportunities for drug repurposing: Confirmatory screen for LAN-5 cells (AID 1347113); also: nearly all actives have a fitted effect of over 65% in size
# Outline: as §1
# [3] = qHTS of pediatric cancer cell lines to identify multiple opportunities for drug repurposing: Confirmatory screen for BT-37 cells (AID 1347117); also: nearly all actives have a fitted effect of over 55% in size
# Outline: as §1
# [4] = qHTS of pediatric cancer cell lines to identify multiple opportunities for drug repurposing: Confirmatory screen for TC32 cells (AID 1347118);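 also: cells exposed to compound for 48 h before the read; nearly all actives have a fitted effect of over 65% in size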
# Outline: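 qHTS, TC32, 48 h drug treatment, CellTiter-Glo luminescence as a proxy for metabolically active cells; primary top concentration 46 µM (MIPE 11-pt, NPC 8-pt); confirmatory 11-pt.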
# [5] = qHTS of pediatric cancer cell lines to identify multiple opportunities for drug repurposing: Confirmatory screen for MG 63 (6-TG R) cells (AID 1347119); also: nearly all actives have a fitted effect of over 55% in size
# Outline: as §1
# [6] = qHTS of pediatric cancer cell lines to identify multiple opportunities for drug repurposing: Confirmatory screen for U-2 OS cells (AID 1347122); also: nearly all actives have a fitted effect of over 65% in size
# Outline: as §1
# [7] = qHTS of pediatric cancer cell lines to identify multiple opportunities for drug repurposing: Confirmatory screen for DAOY cells (AID 1347114); also: nearly all actives have a fitted effect of over 65% in size
# Outline: (§2)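 Viability measured as metabolically active cells via CellTiter-Glo luminescence following 48 hours of compound exposure, 11-point dilutions in confirmatory testing. 500-1,000 cells/well plated 5 hours before dosing; controls were DMSO and 2.3 µM bortezomib.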
# [8] = qHTS of pediatric cancer cell lines to identify multiple opportunities for drug repurposing: Confirmatory screen for NB-EBc1 cells (AID 1347115);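 also: cells exposed to compound for 48 h before the viability read; nearly all actives have a fitted effect of over 45% in size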
# Outline: as §1
# [9] = qHTS of pediatric cancer cell lines to identify multiple opportunities for drug repurposing: Confirmatory screen for SJ-GBM2 cells (AID 1347116); also: nearly all actives have a fitted effect of over 60% in size
# Outline: as §2
# [10] = qHTS of pediatric cancer cell lines to identify multiple opportunities for drug repurposing: Confirmatory screen for control Hh wild type fibroblast cells (AID 1347121); also: nearly all actives have a fitted effect of over 70% in size
# Outline: as §1
# Potency is read from the fitted curve at half-maximal effect.
smiles,measurement,setting,value
Cc1ccc(NC(=O)c2ccc(CN3CCN(C)CC3)cc2)cc1Nc1nccc(-c2cccnc2)n1,Potency,[1],"inconclusive: 36.9 µM [cytotoxic, partial curve, poor fit]"
same,Potency,[2],"inconclusive: 20.8 µM [cytotoxic, single point]"
same,Potency,[3],"inconclusive: 36.9 µM [cytotoxic, partial curve, poor fit]"
same,Potency,[4],"inconclusive: 23.3 µM [cytotoxic, single point]"
same,Potency,[5],inactive
same,Potency,[6],inactive
CC(C)NCC(O)c1ccc(O)c(O)c1 (stereo not drawn),Potency,[2],"inconclusive: 5.22 µM [cytotoxic, partial curve, poor fit]"
same,Potency,[7],inactive
same,Potency,[8],inactive
same,Potency,[9],"inconclusive: 7.37 µM [cytotoxic, partial curve]"
same,Potency,[4],"inconclusive: 4.14 µM [cytotoxic, partial curve]"
same,Potency,[5],"inconclusive: 7.37 µM [cytotoxic, partial curve]"
same,Potency,[6],active: 7.37 µM
Nc1ccccc1NC(=O)c1ccc(CNC(=O)OCc2cccnc2)cc1,Potency,[1],"inconclusive: 24 µM [cytotoxic, partial curve]"
same,Potency,[8],active: 30.2 µM
same,Potency,[9],active: 13.5 µM
same,Potency,[10],"inconclusive: 9.55 µM [cytotoxic, full curve, poor fit]"
COC(=O)Nc1ccc(-c2nc(N3CCOCC3)c3cnn(C4CCN(C(=O)OC)CC4)c3n2)cc1,Potency,[1],"inconclusive: 8.27 µM [cytotoxic, partial curve]"
same,Potency,[7],"inconclusive: 4.65 µM [cytotoxic, full curve]"
same,Potency,[8],"inconclusive: 16.5 µM [cytotoxic, partial curve]"
same,Potency,[9],"inconclusive: 0.928 µM [cytotoxic, full curve]"
same,Potency,[10],"inconclusive: 2.08 µM [cytotoxic, full curve]"
same,Potency,[6],"inconclusive: 2.61 µM [cytotoxic, full curve]"
O=S(=O)(O)CCSSCCS(=O)(=O)O,Potency,[1],inactive
same,Potency,[9],inactive
same,Potency,[3],inactive
same,Potency,[4],inactive
same,Potency,[6],inactive
O=C(Nc1ccc([N+](=O)[O-])cc1Cl)c1cc(Cl)ccc1O,Potency,[1],active: 3.23 µM
same,Potency,[7],active: 1.02 µM
same,Potency,[8],active: 1.44 µM
same,Potency,[9],active: 4.07 µM
O=C1C(Cl)=C(NCCN2CCOCC2)C(=O)c2ncccc21,Potency,[1],active: 2.61 µM
same,Potency,[7],active: 7.37 µM
same,Potency,[8],active: 5.85 µM
same,Potency,[9],active: 14.7 µM
Nc1ccc(-c2ccc3ncc4ccc(=O)n(-c5cccc(C(F)(F)F)c5)c4c3c2)cn1,Potency,[1],"inconclusive: 0.185 µM [cytotoxic, full curve]"
same,Potency,[9],active: 0.233 µM
same,Potency,[3],active: 0.117 µM
same,Potency,[10],"inconclusive: 0.0208 µM [cytotoxic, full curve, poor fit]"
CC(C)(C(=O)NCC(F)(F)C(F)(F)F)C(=O)N[C@@H]1C(=O)Nc2ccccc2-c2ccccc21,Potency,[2],inactive
same,Potency,[7],inactive
same,Potency,[9],inactive
same,Potency,[3],"inconclusive: 32.9 µM [cytotoxic, single point]"
same,Potency,[4],"inconclusive: 1.04 µM [cytotoxic, full curve, poor fit]"
C[C@H]1C[C@H]2[C@@H]3CCC4=CC(=O)C=C[C@]4(C)[C@@]3(Cl)[C@@H](O)C[C@]2(C)[C@@]1(O)C(=O)CO,Potency,[2],inactive
same,Potency,[7],inactive
same,Potency,[8],inactive
same,Potency,[9],inactive
same,Potency,[4],inactive
same,Potency,[6],inactive
COc1ncc(-c2ccc3nccc(-c4ccnnc4)c3c2)cc1NS(=O)(=O)c1ccc(F)cc1F,Potency,[1],"inconclusive: 1.85 µM [cytotoxic, full curve]"
same,Potency,[7],"inconclusive: 5.22 µM [cytotoxic, full curve, poor fit]"
same,Potency,[8],active: 8.27 µM
same,Potency,[9],"inconclusive: 11.7 µM [cytotoxic, full curve, poor fit]"
same,Potency,[6],"inconclusive: 1.85 µM [cytotoxic, full curve, poor fit]"
Cc1nc(NC(=O)N2CCC[C@@H]2C(N)=O)sc1-c1ccnc(C(C)(C)C(F)(F)F)c1,Potency,[1],"inconclusive: 11.7 µM [cytotoxic, single point]"
same,Potency,[9],"inconclusive: 8.27 µM [cytotoxic, single point]"
same,Potency,[3],"inconclusive: 8.27 µM [cytotoxic, full curve]"
COC(=O)Nc1nc2ccc(C(=O)C3CC3)cc2[nH]1,Potency,[2],"inconclusive: 1.65 µM [cytotoxic, full curve]"
same,Potency,[7],"inconclusive: 1.17 µM [cytotoxic, full curve, poor fit]"
same,Potency,[8],"inconclusive: 1.47 µM [cytotoxic, full curve]"
same,Potency,[9],"inconclusive: 1.31 µM [cytotoxic, full curve, poor fit]"
same,Potency,[5],active: 1.47 µM
same,Potency,[6],"inconclusive: 2.61 µM [cytotoxic, full curve, poor fit]"
NS(=O)(=O)c1cccc2c1C(=O)c1cccc(O)c1C2=O,Potency,[1],active: 1.04 µM
same,Potency,[2],active: 1.85 µM
same,Potency,[8],inactive
same,Potency,[5],"inconclusive: 36.9 µM [cytotoxic, single point]"
COc1cccc(-c2ccc(NC(=O)C3=C(C(=O)O)CCC3)c(F)c2)c1,Potency,[2],inactive
same,Potency,[7],inactive
same,Potency,[8],"inconclusive: 8.27 µM [cytotoxic, full curve]"
same,Potency,[9],active: 1.17 µM
same,Potency,[3],"inconclusive: 13.1 µM [cytotoxic, partial curve, poor fit]"
same,Potency,[5],"inconclusive: 5.22 µM [cytotoxic, full curve]"
same,Potency,[6],active: 14.7 µM
CCCC(=O)O[C@]1(C(=O)CCl)[C@@H](C)C[C@H]2[C@@H]3CCC4=CC(=O)C=C[C@]4(C)[C@@]3(F)C(=O)C[C@@]21C,Potency,[1],"inconclusive: 23.3 µM [cytotoxic, single point]"
same,Potency,[7],"inconclusive: 26.1 µM [cytotoxic, single point]"
same,Potency,[8],"inconclusive: 36.9 µM [cytotoxic, single point]"
same,Potency,[9],"inconclusive: 32.9 µM [cytotoxic, single point]"
same,Potency,[3],"inconclusive: 23.3 µM [cytotoxic, partial curve, poor fit]"
same,Potency,[4],"inconclusive: 29.3 µM [cytotoxic, partial curve, poor fit]"
same,Potency,[5],"inconclusive: 36.9 µM [cytotoxic, single point]"
same,Potency,[6],"inconclusive: 18.5 µM [cytotoxic, partial curve]"
OC[C@H]1O[C@@H](n2cnc3c2NC=NC[C@@H]3O)C[C@H]1O,Potency,[1],inactive
same,Potency,[9],"inconclusive: 1.04 µM [rising, full curve]"
same,Potency,[3],"inconclusive: 0.0013 µM [rising, full curve, poor fit]"
same,Potency,[5],inactive
CC1(C)OC2=C(C(=O)c3ccccc3C2=O)[C@H](NCc2ccccc2)[C@H]1O,Potency,[2],active: 7.37 µM
same,Potency,[7],active: 8.27 µM
same,Potency,[9],active: 7.37 µM
O=C(Nc1cc2cc[nH]c2cn1)c1ccccc1,Potency,[7],"inconclusive: 4.14 µM [cytotoxic, partial curve, poor fit]"
same,Potency,[8],active: 16.5 µM
same,Potency,[9],"inconclusive: 18.5 µM [cytotoxic, partial curve, poor fit]"
same,Potency,[5],"inconclusive: 11.7 µM [cytotoxic, partial curve, poor fit]"
same,Potency,[6],inactive
CC(C=CC1=C(C)CCCC1(C)C)=CC=CC(C)=CC(=O)O,Potency,[2],inactive
same,Potency,[9],inactive
same,Potency,[3],inactive
same,Potency,[5],"inconclusive: 13.1 µM [cytotoxic, partial curve, poor fit]"
CCCCc1oc2ccccc2c1C(=O)c1cc(I)c(OCCN(CC)CC)c(I)c1,Potency,[5],active: 39.8 µM
same,Potency,[6],active: 28.2 µM
C=CC(=O)Nc1cccc(Sc2nc(Nc3ccc(N4CCN(C)CC4)cc3)ncc2Cl)c1,Potency,[7],active: 23.3 µM
same,Potency,[9],active: 14.7 µM
CC(=O)Nc1ccc([C@H](C)C(=O)Nc2ncc(C(C)C)s2)cc1,Potency,[9],"inconclusive: 4.65 µM [cytotoxic, full curve]"
same,Potency,[3],active: 4.14 µM
same,Potency,[5],"inconclusive: 5.22 µM [cytotoxic, full curve]"
same,Potency,[6],active: 1.47 µM

# A second format for part of the listing above:
smiles | measurement | setting | value
COC(=O)Nc1ccc(-c2nc(N3CCOCC3)c3cnn(C4CCN(C(=O)OC)CC4)c3n2)cc1 | Potency | [9] | inconclusive: 0.928 µM [cytotoxic, full curve]
CCCC(=O)O[C@]1(C(=O)CCl)[C@@H](C)C[C@H]2[C@@H]3CCC4=CC(=O)C=C[C@]4(C)[C@@]3(F)C(=O)C[C@@]21C | Potency | [6] | inconclusive: 18.5 µM [cytotoxic, partial curve]
CCCCc1oc2ccccc2c1C(=O)c1cc(I)c(OCCN(CC)CC)c(I)c1 | Potency | [5] | active: 39.8 µM
